{"source": "patent US20200138960A1", "binders": {"B1": {"name": "N-loop (designed binder)", "chain": "MSSQIRQNYHQDSEAAVNRQINLYLQASYTYLSLGFYFDRDDVALEGVSHFFRELAEEKREGYERLLKMQNQRGGRIFLQDIKKPDCDEWGKTPDAMKAAMALEKKLNQALLDLHKLATDKNDPHLCDFLETHFLDEEVKLIKKMGDHLTNLHRLGGPEAGLGEYLFERLTLKHD"}}, "target": "TfR1 (human, Sino Biological Inc.) (human) (UniProt P02786)", "experiment": "ELISA, converted values compared", "note": "Results are given in words; binding and its absence hold for the method and conditions named. Some entries that bind do so weakly or less than the wild type."}
{"binder": "B1", "values": [{"measurement": "binding", "value": "binds"}]}
